Taken from: PubChem BioAssay AID1259308 (NCATS, 2017)
Shown is a random part of about 59,000 deposited reagents. Of all reagents, about 1,510 (2.6%) are marked active. 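Calls use total luciferase alone and ignore viability, so some active siRNAs may act by altering cell number.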 The numbers tell different reagents against one gene apart. Further read-outs or replicates are left out here. Reagent sequences are not shown.

- Assay: 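Candidate targets for better recombinant protein yield in mammalian cells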 (primary screen)
- Cell system: human HEK293 embryonic kidney cells stably expressing firefly luciferase (HEK-CMV-Luc2-Hygro)
- Reagent: single siRNA against human genes, 0.8 pmol siRNA per well
- Time to read-out: 72 h
- Read-out: 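Reporter luminescence and viable-cell signal on separate replicate plates, given as percent of non-targeting control and median/MAD z-scores, plus per-cell luciferase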
- Reading the numbers: total luciferase, z-score and total luciferase, % of control: higher = more reporter protein produced
- Call rule: 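An siRNA counts as active if its total luciferase robust z-score exceeds 3; genes with two or more such siRNAs out of three were retested with fresh siRNAs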
- Calls: active = raised luciferase; inactive = no rise

For HSPB7 (heat shock protein family B (small) member 7) #1, the values are total luciferase, z-score -1.19; total luciferase, % of control 58.2; inactive.
With knock-down of HSPB7 (heat shock protein family B (small) member 7) #2, the screen gave total luciferase, z-score 3.12; total luciferase, % of control 144; active.
Silencing of HSPB7 (heat shock protein family B (small) member 7) #3 gave: total luciferase, z-score -1.51; total luciferase, % of control 51.8; inactive.
IVNS1ABP (influenza virus NS1A binding protein) #1 scored total luciferase, z-score -1.66; total luciferase, % of control 48.8; inactive.
IVNS1ABP (influenza virus NS1A binding protein) #2 gave total luciferase, z-score -0.951; total luciferase, % of control 63; inactive.
After knock-down of IVNS1ABP (influenza virus NS1A binding protein) #3 the results were total luciferase, z-score 0.249; total luciferase, % of control 86.8; inactive.
For HPRT1 (hypoxanthine phosphoribosyltransferase 1) #1, the entry reads total luciferase, z-score 0.575; total luciferase, % of control 93.3; inactive.
HPRT1 (hypoxanthine phosphoribosyltransferase 1) #2 scored total luciferase, z-score 0.133; total luciferase, % of control 84.5; inactive.
With knock-down of HPRT1 (hypoxanthine phosphoribosyltransferase 1) #3, the record shows total luciferase, z-score -0.323; total luciferase, % of control 75.5; inactive.
Silencing of TTR (transthyretin) #1 came out at: total luciferase, z-score 0.763; total luciferase, % of control 97.1; inactive.
With knock-down of TTR (transthyretin) #2, the screen gave total luciferase, z-score 0.128; total luciferase, % of control 84.4; inactive.
For TTR (transthyretin) #3, the entry reads total luciferase, z-score -0.0874; total luciferase, % of control 80.1; inactive.
Against EBF1 (EBF transcription factor 1) #1, the values are total luciferase, z-score 0.401; total luciferase, % of control 89.9; inactive.
EBF1 (EBF transcription factor 1) #2 showed total luciferase, z-score -1.55; total luciferase, % of control 51.1; inactive.
Silencing of EBF1 (EBF transcription factor 1) #3 gave: total luciferase, z-score 0.92; total luciferase, % of control 100; inactive.
Against SAMD3 (sterile alpha motif domain containing 3) #1, the entry reads total luciferase, z-score 0.451; total luciferase, % of control 90.9; inactive.
For SAMD3 (sterile alpha motif domain containing 3) #2, the entry reads total luciferase, z-score 0.42; total luciferase, % of control 90.2; inactive.
Depletion of SAMD3 (sterile alpha motif domain containing 3) #3 came out at: total luciferase, z-score 0.755; total luciferase, % of control 96.9; inactive.
Against ACAD10 (acyl-CoA dehydrogenase family member 10) #1, the values are total luciferase, z-score 0.0726; total luciferase, % of control 83.3; inactive.
ACAD10 (acyl-CoA dehydrogenase family member 10) #2 gave total luciferase, z-score -0.898; total luciferase, % of control 64; inactive.
After knock-down of ACAD10 (acyl-CoA dehydrogenase family member 10) #3 the results were total luciferase, z-score -0.284; total luciferase, % of control 76.2; inactive.
Knock-down of C17orf78 (chromosome 17 open reading frame 78) #1 gave: total luciferase, z-score 0.674; total luciferase, % of control 95.3; inactive.
With knock-down of C17orf78 (chromosome 17 open reading frame 78) #2, the record shows total luciferase, z-score -1.06; total luciferase, % of control 60.8; inactive.
Knock-down of C17orf78 (chromosome 17 open reading frame 78) #3 resulted in: total luciferase, z-score -1.02; total luciferase, % of control 61.7; inactive.
Silencing of CFAP46 (cilia and flagella associated protein 46) #1 resulted in: total luciferase, z-score -0.541; total luciferase, % of control 71.1; inactive.
CFAP46 (cilia and flagella associated protein 46) #2 scored total luciferase, z-score -1.34; total luciferase, % of control 55.3; inactive.
After knock-down of CFAP46 (cilia and flagella associated protein 46) #3, the screen gave total luciferase, z-score -0.123; total luciferase, % of control 79.4; inactive.
Silencing of CFAP46 (cilia and flagella associated protein 46) #4 gave: total luciferase, z-score 1.11; total luciferase, % of control 104; inactive.
Depletion of CFAP46 (cilia and flagella associated protein 46) #5 gave: total luciferase, z-score -0.332; total luciferase, % of control 75.3; inactive.
For CFAP46 (cilia and flagella associated protein 46) #6, the entry reads total luciferase, z-score 1.79; total luciferase, % of control 117; inactive.
For DESI2 (desumoylating isopeptidase 2) #1, the values are total luciferase, z-score 0.00844; total luciferase, % of control 82.1; inactive.
Against DESI2 (desumoylating isopeptidase 2) #2, the values are total luciferase, z-score -0.85; total luciferase, % of control 65; inactive.
DESI2 (desumoylating isopeptidase 2) #3 showed total luciferase, z-score 0.627; total luciferase, % of control 94.4; inactive.

2 entries from above, ordered by “total luciferase, % of control”, high to low.
SAMD3 (sterile alpha motif domain containing 3) #3 → total luciferase, z-score = 0.755; total luciferase, % of control = 96.9; outcome = inactive
ACAD10 (acyl-CoA dehydrogenase family member 10) #1 → total luciferase, z-score = 0.0726; total luciferase, % of control = 83.3; outcome = inactive
